Measurements as given in PubChem BioAssay AID504444 (National Center for Advancing Translational Sciences (NCATS), 2011).
The whole screen tested about 360,000 compounds, of which about 7,500 (2.1%) were called active. Inconclusive means that the source gave no clear call. Such entries were picked first, then a sample of the others. Calls come from the whole dose curve; as a rule, active = well fitted inhibition curve with a large enough effect; inconclusive = small, poorly fitted or top-dose-only effect, or effect the other way; inactive = flat fitted curve, though single readings scatter. Potencies beside an inconclusive call are fits to weak or partial responses and may not hold up.

Test: Nrf2 qHTS screen for inhibitors; note: nearly all actives have a fitted effect of over 60% in size
Conditions: A549 ARE-Fluc reporter, luciferase luminescence, 18-24 h; series mostly up to 46 µM
How it was run: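 Nrf2 activity is the BugLite luminescence, read 15 min after reagent at room temperature, following CellTiter-Fluor cytotoxicity readout (30 min, 37C). Compound titrations were applied for 18-24 h to 5000 A549 ARE_Fluc cells/well in 5% FBS OPTI-MEM.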
Potency is the fitted concentration of half-maximal effect.

Compound | Potency
CCC(C(=O)NC(C)(C)C)N(C(=O)Cn1nnc(-c2ccccc2F)n1)c1cccc2c1CCCC2 (stereo unspecified) | inactive
COc1cc(/C=N/NC(=O)c2cc(C3CC3)[nH]n2)cc(OC)c1OC | inconclusive: 29.1 µM [falling, partial curve, poor fit]
CCOC(=O)C1CCCN(S(=O)(=O)c2ccc(S(=O)(=O)N(CC)CC)cc2)C1 (stereo unspecified) | inconclusive: 2.91 µM [falling, full curve]
CCN(CCCCCCN)c1ccc2c(=O)[nH][nH]c(=O)c2c1 | inconclusive: 23.1 µM [activator, partial curve, poor fit]
COc1ccc(C(=O)Nc2nc3cc4c(cc3s2)OCO4)c(OC)c1 | inconclusive: 0.651 µM [activator, full curve, poor fit]
COc1ccc(/C=C2/CCC(CN3CCOCC3)C2=O)cc1 (stereo unspecified) | inactive
Cc1ccccc1-c1nnc(SC(C)C(=O)NC2CCCC2)o1 (stereo unspecified) | inconclusive: 29.1 µM [falling, partial curve, poor fit]
CCC/C=C1/CCCOC(C(=O)NCc2ccc(C)o2)(C(F)(F)F)C1 (stereo unspecified) | inactive
COc1ccc2c(c1)c1c(c(=O)n(-c3ccc(C)cc3)c(=O)n1CC(=O)Nc1cc(C)ccc1C)n2C | inconclusive: 4.61 µM [activator, single point]
O=C1CCCN1c1ccc(S(=O)(=O)NCc2ccco2)cc1 | inconclusive: 1.64 µM [activator, partial curve, poor fit]
O=S(=O)(c1ccccc1Cl)N1CCCC1c1nc(-c2cccc(Cl)c2)no1 (stereo unspecified) | inconclusive: 20.6 µM [falling, single point]
FC(F)(F)c1cccc(Cc2noc(CN3CCCC(CN4CCCC4)C3)n2)c1 (stereo unspecified) | inconclusive: 2.06 µM [activator, partial curve, poor fit]
COc1ccc(CCNC(=O)C/C(C)=N/NC(=O)C23CC4CC(CC(C4)C2)C3)cc1OC | inconclusive: 18.4 µM [activator, single point]
CC(=O)c1nn(-c2cccc(Br)c2)cc1C(=O)c1cccc2ccccc12 | inconclusive: 14.6 µM [falling, partial curve, poor fit]
Cc1nccc(-c2ccc(-n3cnc4ccccc43)cc2)n1 | inactive
CS(=O)(=O)Nc1cccc(C2=NN(S(=O)(=O)c3ccccc3)C(c3cccs3)C2)c1 (stereo unspecified) | inconclusive: 20.6 µM [falling, partial curve, poor fit]
CCOC(=O)c1[nH]c2ccccc2c1NC(=O)CCN1CC(C)OC(C)C1 (stereo unspecified) | inactive
COc1cccc(/C=C/C(=O)NNC(=O)c2ccccc2)c1OC | inconclusive: 11.6 µM [activator, partial curve]
c1ccc2cc(C3CCCCC3)ncc2c1 | inconclusive: 10.3 µM [activator, partial curve]
CCc1nc(N2CCN(S(=O)(=O)c3ccc(Br)cc3)CC2)c2c(C)c(C)sc2n1 | inconclusive: 16.4 µM [falling, single point]
CCC(=O)N1c2ccc(S(=O)(=O)NCCc3ccccc3)cc2CC1C (stereo unspecified) | active: 23.1 µM
COc1ccc(S(=O)(=O)N(CC(=O)NC(C)C)Cc2ccccc2)cc1 | inconclusive: 6.51 µM [activator, partial curve, poor fit]

Compound | Potency
Cc1ccc(-n2ncc3c2CC(C)(C)CC3NC(=O)c2ccccn2)cc1 (stereo unspecified) | inconclusive: 16.4 µM [falling, single point]
O=C(/C=C1\NC2(CCCC2)Cc2ccccc21)N1CCOCC1 | inconclusive: 20.6 µM [falling, single point]
Cc1ccc(-n2c(Cc3cccs3)nnc2SCC(=O)Nc2ccc(F)c(F)c2)cc1 | active: 23.1 µM
O=C(Nc1ccc(O)cc1)C1CCCN1S(=O)(=O)c1ccc(F)cc1 (stereo unspecified) | active: 14.6 µM
COc1cc(C(=O)N(C)Cc2cccc(OC)c2OC)ccc1OCC(=O)Nc1cccc(C(F)(F)F)c1 | active: 25.9 µM
CCN(C[C@H]1N[C@@](CC)(C(=O)OC)[C@H]2C(=O)N(Cc3ccccc3)C(=O)[C@@H]12)C(=O)c1ccc(C(C)(C)C)cc1 | inconclusive: 25.9 µM [falling, single point]
O=C(OCC(=O)N1CCc2ccccc21)c1ccccc1[N+](=O)[O-] | inconclusive: 25.9 µM [activator, partial curve]
Cc1cc(C)c2oc(C(=O)Nc3ccc(S(=O)(=O)Nc4nccs4)cc3)cc(=O)c2c1 | inconclusive: 23.1 µM [falling, single point]
O=C(O)C(=O)/C(=C\c1ccc(Cl)cc1)c1ccc2ccccc2n1 | inconclusive: 20.6 µM [activator, partial curve]
O=c1[nH]c(SCc2cccc(Cl)c2)nc2c1CCCC2 | inconclusive: 29.1 µM [falling, single point]
COc1ccc(-c2cc(C(F)(F)F)nc(SCC(=O)Nc3ccc(C(C)=O)cc3)n2)cc1 | active: 23.1 µM
O=C(O)c1ccccc1Sc1ncnc2sc3c(c12)CCC3 | inactive
CC1(C)Cc2[nH]c(=O)c(C#N)cc2CS1 | inactive
Cc1nn(-c2ccc(C(=O)N3CCN(S(=O)(=O)c4ccccc4C(F)(F)F)CC3)cc2)c(C)c1Cl | inactive
Cc1nc2ccc(NC(=O)c3ccc4ccccc4n3)cc2s1 | inconclusive: 3.26 µM [activator, full curve]
O=C(/C=C/Nc1cccc([N+](=O)[O-])c1)c1ccco1 | inconclusive: 8.2 µM [activator, partial curve]
Cc1ccc(C(=O)COC(=O)CCNS(=O)(=O)c2ccccc2F)cc1 | inactive
O=C(NC(NNc1ccc([N+](=O)[O-])cc1)(C(F)(F)F)C(F)(F)F)c1ccc(Cl)cc1 | inconclusive: 20.6 µM [falling, partial curve, poor fit]
CCOC(=O)Cn1c(-c2nonc2NC(=O)c2ccccc2F)nc2ccccc21 | inconclusive: 1.3 µM [activator, full curve]
CCCC(C)NC(=O)c1ccc2[nH]c3c(c2c1)CC(C)CC3 (stereo unspecified) | inconclusive: 13 µM [activator, partial curve, poor fit]
COc1cccc(Cn2cccc(NC(=O)Nc3cccc(C#N)c3)c2=O)c1 | inconclusive: 0.411 µM [falling, partial curve, poor fit]
CSc1cccc(NC(=O)/C=C/c2ccco2)c1 | inconclusive: 23.1 µM [activator, partial curve, poor fit]

Compound | Potency
COc1ccc(CN2CCC(n3nccc3NC(=O)CCOc3ccccc3)CC2)cc1C | inconclusive: 23.1 µM [falling, single point]
CCCc1cc(=O)c2ccc(OC/C(C)=N/O)cc2o1 | inconclusive: 23.1 µM [falling, partial curve, poor fit]
Cc1ccc(NC(=S)NC(=O)C2CCCC2)c(Br)c1 | inconclusive: 2.91 µM [activator, full curve]
O=C(O)CN1CCN(C(c2ccccc2)c2ccccc2)CC1 | inactive
COc1ccc(C(=O)c2sc(Nc3ccc(NC(C)=O)cc3)nc2C)cc1 | inactive
N#Cc1nc(-c2ccco2)oc1NCc1ccco1 | inconclusive: 18.4 µM [activator, single point]
CCOC(=O)C1CCN(S(=O)(=O)c2ccc3c(c2)CC(=O)N3C)CC1 | inactive
CCOc1ccc(S(=O)(=O)N(C)c2ccc(OCC(=O)Nc3ccccc3F)cc2)cc1 | inconclusive: 29.1 µM [falling, single point]
COc1cccc(CC(=O)N2CCC(n3nccc3NC(=O)C3CC3)CC2)c1 | inconclusive: 18.4 µM [activator, single point]
CCOC(=O)C1(CCc2ccccc2)CCN(C(=O)c2cnc(C)cn2)CC1 | inconclusive: 14.6 µM [activator, partial curve, poor fit]
CCOC(=O)c1cnc(SCC(=O)Nc2cc(OC)ccc2OC)nc1N | active: 10.3 µM
Cc1cc(O)cc(O)c1C(=O)Cc1ccccc1 | inactive
NC(=O)/C=C\C(=O)Nc1cccc(C(F)(F)F)c1 | active: 1.84 µM
O=C(CCc1ccc(S(=O)(=O)N2CCOCC2)cc1)Nc1ccc(F)c(F)c1F | inconclusive: 18.4 µM [falling, partial curve, poor fit]
NS(=O)(=O)c1ccc(CCNCc2ccccc2OCc2ccc(F)cc2)cc1 | inconclusive: 20.6 µM [falling, partial curve, poor fit]
COc1cccc(NC(=O)c2cccc(S(=O)(=O)N3CCN(Cc4ccccc4)CC3)c2)c1 | inconclusive: 13 µM [falling, partial curve]
Cc1[nH]n(-c2ccccc2)c(=O)c1N=Nc1ccc2c(c1)OCO2 | inconclusive: 6.51 µM [activator, single point]
CCN(CC)S(=O)(=O)c1ccc2oc(SCC3CN=C(c4ccc(OC)cc4)S3)nc2c1 (stereo unspecified) | active: 6.51 µM
Cc1ccc(CC(=O)Nc2ccc(F)c([N+](=O)[O-])c2)cc1C | inconclusive: 6.51 µM [falling, single point]
O=C(COCc1cc(-c2cccs2)on1)Nc1cccc(O)c1 | inconclusive: 16.4 µM [activator, single point]
O=[N+]([O-])c1ccc(NC(=S)NCc2ccc(F)cc2)cc1 | inconclusive: 29.1 µM [falling, single point]
COc1ccc(C2CC(=O)C=C(NCC3CCCO3)C2)cc1 (stereo unspecified) | inconclusive: 4.61 µM [activator, full curve, poor fit]

In a second layout: three of the compounds above
Compound	Potency
O=C(O)CN1CCN(C(c2ccccc2)c2ccccc2)CC1	inactive
COc1cccc(CC(=O)N2CCC(n3nccc3NC(=O)C3CC3)CC2)c1	inconclusive: 18.4 µM [activator, single point]
COc1ccc(C2CC(=O)C=C(NCC3CCCO3)C2)cc1 (stereo unspecified)	inconclusive: 4.61 µM [activator, full curve, poor fit]
